No constants are given. Whether binding was seen depends on the method and setting. Some entries that bind do so weakly or less than the wild type. Where a sequence is shown, tags or fusion partners need not be part of it.
Target: PA-tagged human J-chain (disulfide-linked J-chain oligomers) (human) (UniProt P01591)
Assay: high-speed AFM; 100 nM J-chain oligomers immobilised on a cobalt-scattered mica surface, 10 nM ERdj5 added to the cantilever holder; 50 mM Tris-HCl pH 7.0, 150 mM NaCl, 5 mM MgCl2, 2.5 mM GSH; room temperature; 0.1 s/frame; both purified

By UniProt entry, the sequences of proteins in these tests, tags left out. Residues count along the entry.
UniProt P01591, residues 24-159: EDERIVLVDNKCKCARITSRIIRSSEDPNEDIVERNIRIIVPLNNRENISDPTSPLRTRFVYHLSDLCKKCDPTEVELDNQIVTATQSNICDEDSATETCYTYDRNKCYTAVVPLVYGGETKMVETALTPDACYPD

B1: DnaJ homolog subfamily C member 10 (ERdj5) WT, FLAG-tagged (enzyme, UniProt Q9DC23 33-793)
chain: DQNFYSLLGVSKTASSREIRQAFKKLALKLHPDKNPNNPNAHGDFLKINRAYEVLKDEDLRKKYDKYGEKGLEDNQGGQYESWSYYRYDFGIYDDDPEIITLERREFDAAVNSGELWFVNFYSPGCSHCHDLAPTWREFAKEVDGLLRIGAVNCGDDRMLCRMKGVNSYPSLFIFRSGMAAVKYNGDRSKESLVAFAMQHVRSTVTELSTGNFVNAIETAFAAGVGWLITFCSKGEDCLTSQTRLRLSGMLDGLVNVGWVDCDAQDSLCKSLDTTASTTAYFPPGATLNDREKSSVLFLNSLDAKEIYMEIIHNLPDFELLSANQLEDRLAHHRWLVFFHFGKNENANDPELKKLKTLLKNEHIQVGRFDCSSAPGICSDLYVFQPCLAVFKGQGTKEYEIHHGKKILYDILAFAKESVNSHVTTLGPQNFPASDKEPWLVDFFAPWCPPCRALLPELRKASTLLYGQLKVGTLDCTIHEGLCNMYNIQAYPTTVVFNQSSIHEYEGHHSAEQILEFIEDLRNPSVVSLTPSTFNELVKQRKHDEVWMVDFYSPWCHPCQVLMPEWKRMARTLTGLINVGSVDCQQYHSFCTQENVQRYPEIRFYPQKSSKAYQYHSYNGWNRDAYSLRSWGLGFLPQASIDLTPQTFNEKVLQGKTHWVVDFYAPWCGPCQNFAPEFELLARMIKGKVRAGKVDCQAYPQTCQKAGIKAYPSVKLYQYERAKKSIWEEQINSRDAKTIAALIYGKLETLQSQVKRNKDEL
- binding: binds

Reference: publication PMC10591012
